Hit rate of the full screen: of about 220,000 compounds, about 770 (0.35%) were called active. The shares of active, inactive and inconclusive entries below differ from those in the screen. Rule as the data show it: active = binding response below about 49% or above about 150%; inconclusive = no clear call, values can overlap the other calls; inactive = in between.
These molecules were tested against Guanine nucleotide-binding protein G(o) subunit alpha (Homo sapiens) (UniProt P09471) (assay: RGS7-Galphao binding modulators, primary screen, biochemical, multiplexed bead flow cytometry (AID 1439;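 also: fluorescent Galphao held in activated GDP-AlF4 state binding bead-coupled RGS7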)). Details: at 10 µM, actives lie on both sides.

By UniProt entry, the sequences of proteins in these tests, tags left out.
UniProt P09471, whole entry, looked up: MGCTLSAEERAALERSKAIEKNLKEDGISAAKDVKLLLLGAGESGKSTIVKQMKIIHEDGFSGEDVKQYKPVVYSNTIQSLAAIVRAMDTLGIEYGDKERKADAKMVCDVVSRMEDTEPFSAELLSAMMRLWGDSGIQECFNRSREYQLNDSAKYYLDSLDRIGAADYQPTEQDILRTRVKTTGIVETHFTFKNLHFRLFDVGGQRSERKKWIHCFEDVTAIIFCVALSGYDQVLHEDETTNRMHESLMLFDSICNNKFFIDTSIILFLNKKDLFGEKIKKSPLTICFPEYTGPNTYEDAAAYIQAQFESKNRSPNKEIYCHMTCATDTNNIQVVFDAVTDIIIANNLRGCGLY

| Structure (SMILES) | binding response (% of control) |
| --- | --- |
| COc1ccccc1P(=O)(c1ccccc1)c1ccccc1NC(C)=O (centres undefined) | inconclusive: 168% |
| Cc1cccc2cc(/C=N/Nc3ccc(C(=O)O)cc3)c(Cl)nc12 | inconclusive: 94.8% |
| COc1cc(C(=O)OCC(=O)N2CCCCC2C)cc(NC(=O)c2cccs2)c1OC (centres undefined) | inconclusive: 88.6% |
| CC(=O)Nc1ccc(N(C(=O)CNC(=O)c2ccco2)C(C(=O)NCC2CCCO2)c2ccccc2)cc1 (centres undefined) | inconclusive: 84.8% |
| O=C(O)CC1(CC(=O)NCc2ccc(C(F)(F)F)cc2)CCCCC1 | inconclusive: 112% |
| Oc1ccccc1-c1nc(/C=C/c2ccccc2)nn1-c1ccccc1 | inactive: 106% |
| COc1ccc(C2CC(=O)c3cnc(N4CCc5ccccc54)nc3C2)c(OC)c1 (centres undefined) | inactive: 99% |
| C=CCC1Cc2c(Br)cccc2C(CC=C)N1 (centres undefined) | inconclusive: 103% |
| O=C(O)CNC(=O)/C=C/c1c(Cl)cccc1Cl | inconclusive: 67.9% |
| COc1ccc(C(=O)NNC(=O)CSc2nc3c([nH]2)c(=O)n(C)c(=O)n3C)cc1 | inconclusive: 84.3% |
| CC1CCC(N(CCCN)Cc2ccco2)CC1C (centres undefined) | inactive: 91.1% |
| Cc1ccc(NC(=O)Nc2ccc([N+](=O)[O-])cc2)nc1 | inconclusive: 101% |
| COc1ccccc1-n1c(SCC(=O)OC(C)C)nc2cccnc21 | inconclusive: 100% |
| O=C(Nc1nc2ccccc2s1)c1ccccc1 | inconclusive: 98.9% |
| COc1ccc(CCN(Cc2cc3ccc(C)cc3n3nnnc23)C(C)=O)cc1OC | inactive: 101% |
| CCOC(=O)/C(O)=C(\C#N)c1nc2ccccc2[nH]1 | inconclusive: 93.5% |
| C=CCn1c(SCC(=O)N2c3ccccc3Sc3ccccc32)nnc1-c1ccco1 | inconclusive: 89.3% |
| FC(F)(F)c1cccc(Cc2noc(CN3CCC(c4ccncc4)CC3)n2)c1 | inactive: 103% |
| CCN(c1ccccc1)S(=O)(=O)c1ccc(Cl)c(NC(=O)CN2CCCCCC2)c1 | inconclusive: 106% |
| Cc1cc(=O)[nH]c(=O)n1Cc1ccccc1 | inconclusive: 97.7% |

| Structure (SMILES) | binding response (% of control) |
| --- | --- |
| COC(=O)c1ccc(C(=O)OC)c(NC(=S)N2CCC(C)CC2)c1 | inactive: 100% |
| CCOc1ccccc1NS(=O)(=O)c1cn(C)c(=O)n(C)c1=O | inconclusive: 151% |
| COC(=O)c1cc(C#N)c(N2CC(C)OC(C)C2)nc1C (centres undefined) | inconclusive: 115% |
| CCOc1ccc(C(CC(=O)O)NC(=O)c2cccs2)cc1OC (centres undefined) | inactive: 101% |
| COc1ccc(OCc2nnc(NC(=O)Nc3ccccc3F)s2)cc1 | inconclusive: 137% |
| CN(CCOc1ccccc1)S(=O)(=O)c1ccc2oc3ccccc3c2c1 | inactive: 118% |
| O=C(NCc1ccccn1)c1nnc(Cc2ccc(Cl)cc2)o1 | inactive: 98.8% |
| COc1ccc(-c2csc(Nc3ccccc3)n2)cc1 | inconclusive: 96.6% |
| COc1ccc(N(CC(=O)Nc2ccc(OC)c(Cl)c2)S(=O)(=O)c2c(C)noc2C)cc1 | inactive: 116% |
| COc1ccc(C(C)=O)cc1COC(=O)c1cccnc1SC | inconclusive: 99.2% |
| COc1cccc(N=Nc2c(N)[nH]n3c(=O)c4c(nc23)CCCC4)c1 | inactive: 98.8% |
| O=C(NCc1ccc(Cl)cc1)C1CCC(CNc2c(N3CCOCC3)c(=O)c2=O)CC1 (centres undefined) | inconclusive: 96.6% |
| Cc1nc(NC(=O)c2ccccc2)sc1C1(C)CC(c2c(Cl)cccc2Cl)=NO1 (centres undefined) | inconclusive: 117% |
| C(=N\Nc1nccc(-c2cccnc2)n1)/c1ccccc1 | inconclusive: 77.4% |
| Cc1cccc(Nc2nc(N)nc(-c3oc4ccccc4c3C)n2)c1 | inconclusive: 101% |
| CC(=O)N1CCC(=NNc2nc3ccccc3[nH]2)CC1 | inconclusive: 99.1% |
| COc1ccc(C(O)P(=O)(OC(C)C)OC(C)C)c(OC)c1 (centres undefined) | inconclusive: 68.8% |
| Cc1ccc(S(=O)(=O)NCC(=O)NCC(=O)N2CCN(c3ncccn3)CC2)cc1C | inconclusive: 103% |
| COc1ccccc1NS(=O)(=O)c1cccc(NC(=O)NCCCl)c1 | inconclusive: 105% |
| O=S(=O)(NCCc1csc(-c2ccccc2)n1)c1cccnc1 | inconclusive: 135% |

| Structure (SMILES) | binding response (% of control) |
| --- | --- |
| C=CCSc1n[nH]c(=O)n1-c1cccc(C(F)(F)F)c1 | inconclusive: 82.7% |
| Cc1ccc(S(=O)(=O)N2CCCCC2)cc1NC(=O)CSc1nccn1C | inactive: 104% |
| COc1ccc(C(CC(=O)N2CCCCC2)c2c(OC)cc(OC)c3c(-c4ccccc4)cc(=O)oc23)cc1 (centres undefined) | inconclusive: 81.7% |
| CCOc1cccc2sc(N(CCCN(C)C)C(=O)Cc3ccccc3)nc12 | inconclusive: 105% |
| CN1CCN(C(=S)NC(CC(=O)c2ccccc2)c2ccccc2)CC1 (centres undefined) | inconclusive: 151% |
| COCCn1c(N)c(N(Cc2ccccc2)C(=O)C2CCCCC2)c(=O)[nH]c1=O | inconclusive: 94.7% |
| COCCNC(=O)/C(C#N)=C/c1cc(Br)c(O)c(OC)c1 | inconclusive: 92.3% |
| NC(=O)/C(=C\c1ccncc1)c1cccc2ccccc12 | inconclusive: 115% |
| COc1ccc(NC(=S)N2CCN(CCN3C(=O)c4cccc5cccc(c45)C3=O)CC2)cc1 | inconclusive: 112% |
| O=C(CS(=O)(=O)c1ccccc1)Nc1ccc(S(=O)(=O)Nc2ncccn2)cc1 | active: 35% |
| CC(c1ccccc1)N1CCc2[nH]c(=S)[nH]c(=O)c2C1 (centres undefined) | inactive: 113% |
| COC(=O)c1cc2n(n1)CCN(Cc1ccc(C)cc1)C2=O | inactive: 101% |
| Cc1ccc(C(OCC(C)(C)C[N+](C)(C)C)c2ccccc2)cc1 (centres undefined) | inactive: 98.5% |
| Brc1ccc(C2=CC(c3ccco3)n3nnnc3N2)cc1 (centres undefined) | inconclusive: 97.3% |
| CC1(C)CC(=O)C2=C(C1)Nc1ccccc1NC2c1cccnc1 (centres undefined) | inactive: 115% |
| OC1(C#CCN2CCCC2)c2ccccc2-c2ccccc21 | inconclusive: 7.06% |
| COc1ccc(CCn2cnc3c([nH]c4ccccc43)c2=O)cc1 | inconclusive: 102% |
| CCOC(=O)Cc1c[nH]c(=S)[nH]c1=O | inconclusive: 34.3% |
| O=C(c1ccc(Cl)c(S(=O)(=O)N2CCCC2)c1)N1CCN(c2ccc(F)cc2)CC1 | inconclusive: 110% |

A draw from above in order of length of the SMILES, largest number first:

| Structure (SMILES) | binding response (% of control) |
| --- | --- |
| COc1ccc(NC(=S)N2CCN(CCN3C(=O)c4cccc5cccc(c45)C3=O)CC2)cc1 | inconclusive: 112% |
| COCCn1c(N)c(N(Cc2ccccc2)C(=O)C2CCCCC2)c(=O)[nH]c1=O | inconclusive: 94.7% |
| CCOc1cccc2sc(N(CCCN(C)C)C(=O)Cc3ccccc3)nc12 | inconclusive: 105% |
| Brc1ccc(C2=CC(c3ccco3)n3nnnc3N2)cc1 (centres undefined) | inconclusive: 97.3% |
| CCOC(=O)Cc1c[nH]c(=S)[nH]c1=O | inconclusive: 34.3% |

Reference: PubChem BioAssay AID1439 (NMMLSC, 2008)
